Experimental data published in paper doi:10.1101/2023.04.10.536212.
These are yes or no findings as the source states them, for the method shown. In cells and extracts the contact can be indirect. Some results given as binding are weak or reduced against the parent protein; the word gives no strength.

By UniProt entry, the sequences of proteins in these tests, tags left out.
UniProt Q01860, whole entry: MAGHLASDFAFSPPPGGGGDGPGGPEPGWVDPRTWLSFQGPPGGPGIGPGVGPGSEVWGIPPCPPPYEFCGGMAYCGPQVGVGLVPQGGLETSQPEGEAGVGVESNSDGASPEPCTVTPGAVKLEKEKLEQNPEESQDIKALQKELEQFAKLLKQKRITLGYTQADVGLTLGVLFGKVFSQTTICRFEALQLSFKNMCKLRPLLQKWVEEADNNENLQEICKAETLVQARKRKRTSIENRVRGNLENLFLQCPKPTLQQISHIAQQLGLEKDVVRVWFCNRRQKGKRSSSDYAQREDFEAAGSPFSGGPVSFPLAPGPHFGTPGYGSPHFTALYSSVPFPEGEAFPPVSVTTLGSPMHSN
UniProt P12004, whole entry: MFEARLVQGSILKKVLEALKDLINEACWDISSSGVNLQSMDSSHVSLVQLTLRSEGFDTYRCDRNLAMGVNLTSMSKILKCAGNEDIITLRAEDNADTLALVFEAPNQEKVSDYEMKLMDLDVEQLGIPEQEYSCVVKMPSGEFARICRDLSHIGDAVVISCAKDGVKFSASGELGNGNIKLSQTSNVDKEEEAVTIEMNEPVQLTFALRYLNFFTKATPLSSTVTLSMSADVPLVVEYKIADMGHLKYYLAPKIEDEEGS
UniProt P08670, whole entry: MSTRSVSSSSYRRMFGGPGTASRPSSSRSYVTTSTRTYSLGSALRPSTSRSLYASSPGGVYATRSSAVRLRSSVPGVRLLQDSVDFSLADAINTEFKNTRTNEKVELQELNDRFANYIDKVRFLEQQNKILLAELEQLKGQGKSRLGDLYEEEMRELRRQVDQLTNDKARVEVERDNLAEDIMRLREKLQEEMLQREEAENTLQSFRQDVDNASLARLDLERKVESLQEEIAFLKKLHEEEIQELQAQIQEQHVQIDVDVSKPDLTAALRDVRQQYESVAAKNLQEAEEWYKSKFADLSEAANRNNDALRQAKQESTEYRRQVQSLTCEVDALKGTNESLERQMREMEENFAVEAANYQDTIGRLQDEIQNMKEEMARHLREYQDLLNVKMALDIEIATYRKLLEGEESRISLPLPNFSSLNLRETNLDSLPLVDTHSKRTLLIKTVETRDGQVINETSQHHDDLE

Target: Octamer-binding transcription factor-4 (Oct4) (UniProt Q01860)
Assay: co-IP

Row | Substance | binding
1 | PCNA (from UniProt P12004 1-261) | binds
2 | Vimentin (from UniProt P08670 1-466) | binds
